Values quoted from earlier work, collected in patent US20260256818A1, “NOVEL CO-DRUG, CO-ADMINISTRATION, AND SEQUENTIAL ADMINISTRATION OF BISPECIFIC RBP4/TTR LIGAND AND C20-D3-RETINOL FOR ELIMINATION OF MECHANISM-BASED OCULAR ADVERSE EFFECTS IN TREATING MACULAR DEGENERATION AND TTR AMYLOIDOSIS” (The Trustees of Columbia University in the City of New York, priority 2023, published 2026).

Settings: in vitro; cited from earlier work

SMILES: [2H]C([2H])([2H])C(/C=C/C=C(C)/C=C/C1=C(C)CCCC1(C)C)=C\C=O [C20-D3-retinaldehyde]
- dimer formation less rapid than unlabeled retinaldehyde: 12 times
- reduction of bisretinoid A2E formation: 7 fold
